These results are taken from paper doi:10.1101/2020.11.06.372292.

Results are given in words; binding and its absence hold for the method and conditions named. In cells and extracts the contact can be indirect. Some binding calls cover weakened binding; strength is not graded here.

Holding throughout (experiment): co-IP
Assay [1] has as its target T1, βPix, endogenous in mouse kidney (mouse (endogenous in kidney tissue)) (UniProt Q9ES28).
T1 sequence: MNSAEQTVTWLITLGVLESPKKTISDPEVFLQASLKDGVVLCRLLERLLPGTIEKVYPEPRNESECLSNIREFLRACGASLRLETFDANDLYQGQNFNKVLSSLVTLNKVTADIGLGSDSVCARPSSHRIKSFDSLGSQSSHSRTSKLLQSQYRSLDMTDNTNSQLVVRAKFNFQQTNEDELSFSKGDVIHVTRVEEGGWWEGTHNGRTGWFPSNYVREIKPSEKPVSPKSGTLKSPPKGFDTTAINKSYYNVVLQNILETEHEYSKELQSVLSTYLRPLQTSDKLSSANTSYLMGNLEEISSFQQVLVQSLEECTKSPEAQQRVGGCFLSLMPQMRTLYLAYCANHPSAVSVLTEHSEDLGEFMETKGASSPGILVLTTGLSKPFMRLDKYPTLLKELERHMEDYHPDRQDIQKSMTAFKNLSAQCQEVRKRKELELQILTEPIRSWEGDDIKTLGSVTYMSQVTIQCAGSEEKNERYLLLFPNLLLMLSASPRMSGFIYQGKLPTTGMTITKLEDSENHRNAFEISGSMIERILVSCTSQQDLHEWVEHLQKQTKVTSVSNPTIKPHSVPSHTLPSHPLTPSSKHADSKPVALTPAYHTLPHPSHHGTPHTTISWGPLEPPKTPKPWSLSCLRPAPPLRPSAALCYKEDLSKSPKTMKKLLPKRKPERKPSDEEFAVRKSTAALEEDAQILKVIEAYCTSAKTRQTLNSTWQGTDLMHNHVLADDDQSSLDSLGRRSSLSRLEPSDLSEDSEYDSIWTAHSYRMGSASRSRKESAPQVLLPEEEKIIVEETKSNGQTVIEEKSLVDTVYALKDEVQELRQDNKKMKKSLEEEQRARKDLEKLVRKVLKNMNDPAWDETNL

For assay [2], the target named is βPix, endogenous in HepG2 cells (human (endogenous in HepG2)) (UniProt Q14155).
Assay [3] concerns the target low density lipoprotein receptor (LDLR), endogenous in HepG2 cells (human (endogenous in HepG2)) (UniProt P01130).

B1: inducible degrader of the LDLR (IDOL), endogenous in mouse kidney (enzyme, UniProt Q8BM54 1-445)
chain: MLCYVTRPDAVLMEVEVEAKANGEDCLNQVCRRLGIIEVDYFGLQFTGSKGESLWLNLRNRISQQMDGLAPYRLKLRVKFFVEPHLILQEQTRHIFFLHIKESLLAGHLQCSPEQAVELSALLAQTKFGDYNQNTAQYSYEDLCEKELSSSTLNSIVAKHKELEGISQASAEYQVLQIVSAMENYGIEWHAVRDSEGQKLLIGVGPEGISICKEDFSPINRIAYPVVQMATQSGKNVYLTVTKESGNSIVLLFKMISTRAASGLYRAITETHAFYRCDTVTSAVMMQYSRDLKGHLASLFLNENINLGKKYVFDIKRTSKEVYDHARRALYNAGVVDLVSRSDQSPPSSPLKSSDSSMSCSSCEGLSCQQTRVLQEKLRKLKEAMLCMACCEEEINSTFCPCGHTVCCESCAAQLQSCPVCRSRVEHVQHVYLPTHTSLLNLTVI
For the molecule B1, the binding entry in assay [1] is recorded as “binds”.

B2: inducible degrader of the LDLR (IDOL), endogenous in HepG2 cells (enzyme, UniProt Q8WY64 1-445)
chain: MLCYVTRPDAVLMEVEVEAKANGEDCLNQVCRRLGIIEVDYFGLQFTGSKGESLWLNLRNRISQQMDGLAPYRLKLRVKFFVEPHLILQEQTRHIFFLHIKEALLAGHLLCSPEQAVELSALLAQTKFGDYNQNTAKYNYEELCAKELSSATLNSIVAKHKELEGTSQASAEYQVLQIVSAMENYGIEWHSVRDSEGQKLLIGVGPEGISICKDDFSPINRIAYPVVQMATQSGKNVYLTVTKESGNSIVLLFKMISTRAASGLYRAITETHAFYRCDTVTSAVMMQYSRDLKGHLASLFLNENINLGKKYVFDIKRTSKEVYDHARRALYNAGVVDLVSRNNQSPSHSPLKSSESSMNCSSCEGLSCQQTRVLQEKLRKLKEAMLCMVCCEEEINSTFCPCGHTVCCESCAAQLQSCPVCRSRVEHVQHVYLPTHTSLLNLTVI
For the molecule B2, the binding result in assay [2] and in assay [3] was “binds” each time.
